Patent US20020127605A1 (priority 2000, published 2002)

Amino acid sequences for entries named in this document (tags omitted).
UniProt P62937, whole entry: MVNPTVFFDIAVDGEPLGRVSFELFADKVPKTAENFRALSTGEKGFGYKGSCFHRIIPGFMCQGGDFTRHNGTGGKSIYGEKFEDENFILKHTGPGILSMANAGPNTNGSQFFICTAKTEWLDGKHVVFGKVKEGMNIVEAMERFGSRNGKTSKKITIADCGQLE

Biological target: human recombinant CyPA (Homo sapiens, UniProt P62937)
Assay: Semiautomated microtiter plate assay of rotamase activity inhibition
Settings: read-out: IC50 (rotamase inhibition, modified plate reader assay), 30 minute preincubation at 4° C.

IC50: 80 nM
Structure (SMILES): O=C(Nc1cccc(N(S(=O)(=O)c2cc(Cl)cc(Cl)c2)S(=O)(=O)c2cc(Cl)cc(Cl)c2)c1)NS(=O)(=O)c1cc(Cl)cc(Cl)c1

The structures given here were assigned with low confidence; some may be wrong.
